Experimental data: PubChem BioAssay AID1259254 (NCATS, 2017)

- Test: 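Finding genes that stop cells copying their DNA twice in one cycle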 (primary screen)
- System: human HCT116 colorectal cancer cells
- Knock-down reagent: single siRNA against human genes
- Timing: 3 days
- Detection: 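Imaged Hoechst DNA stain sorts each cell into a cycle phase by DNA amount; per plate, G2 fraction set to 0% for non-targeting and 100% for GMNN siRNA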
- Reading the numbers: G2 robust z-score and G2 cells, % of GMNN control: higher = more G2 cells, more excess DNA replication; raw share of cells in G2: higher = larger share of cells with G2 DNA content
- Active means: 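Active siRNAs have a G2 robust z of 5 or more median absolute deviations over the median, which in these data means about 38% or higher of GMNN control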
Shown is one part, drawn at random, of about 59,000 reagents tested. Over the whole deposit, about 1,550 (2.6%) are marked active. 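G2 share is only a proxy for re-replication; each gene was hit by three separate siRNAs, and active genes were retested.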 Raw values are not corrected between plates. Unmarked entries are inactive. Reagents against one gene are numbered here. Not given: the amount of reagent.

| Gene | siRNA no. | G2 robust z-score | G2 cells, % of GMNN control | raw share of cells in G2 (%) |
| --- | --- | --- | --- | --- |
| GSX1 (GS homeobox 1) | 1 | -0.171 | 1.77 | 5.44 |
| GSX1 (GS homeobox 1) | 2 | -0.0916 | 2.32 | 5.55 |
| GSX1 (GS homeobox 1) | 3 | 3.26 | 25.9 | 18.3 |
| PCDHB1 (protocadherin beta 1) | 1 | 1.41 | 12.9 | 8.21 |
| PCDHB1 (protocadherin beta 1) | 2 | 0.0094 | 3.03 | 7.54 |
| PCDHB1 (protocadherin beta 1) | 3 | -0.535 | -0.797 | 3.92 |
| ZC3H13 (zinc finger CCCH-type containing 13) | 1 | -1.09 | -4.72 | 3.14 |
| ZC3H13 (zinc finger CCCH-type containing 13) | 2 | -0.251 | 1.2 | 4.63 |
| ZC3H13 (zinc finger CCCH-type containing 13) | 3 | -0.128 | 2.07 | 3.95 |
| C14orf180 (chromosome 14 open reading frame 180) | 1 | 2.1 | 17.8 | 10.3 |
| C14orf180 (chromosome 14 open reading frame 180) | 2 | -0.0588 | 2.55 | 4.53 |
| C14orf180 (chromosome 14 open reading frame 180) | 3 | 1.8 | 15.6 | 11.3 |

A run of entries taken from the entries so far, for reference:
| Gene | siRNA no. | G2 robust z-score | G2 cells, % of GMNN control | raw share of cells in G2 (%) |
| --- | --- | --- | --- | --- |
| ZC3H13 (zinc finger CCCH-type containing 13) | 2 | -0.251 | 1.2 | 4.63 |
| ZC3H13 (zinc finger CCCH-type containing 13) | 3 | -0.128 | 2.07 | 3.95 |
| C14orf180 (chromosome 14 open reading frame 180) | 1 | 2.1 | 17.8 | 10.3 |
| C14orf180 (chromosome 14 open reading frame 180) | 2 | -0.0588 | 2.55 | 4.53 |

Further reagents:
| Gene | siRNA no. | G2 robust z-score | G2 cells, % of GMNN control | raw share of cells in G2 (%) |
| --- | --- | --- | --- | --- |
| FTHL17 (ferritin heavy chain like 17) | 1 | -0.825 | -2.84 | 2.59 |
| FTHL17 (ferritin heavy chain like 17) | 2 | -0.292 | 0.912 | 4.66 |
| FTHL17 (ferritin heavy chain like 17) | 3 | 0.634 | 7.43 | 5.65 |
| LRRK1 (leucine rich repeat kinase 1) | 1 | 5.05 (active) | 38.5 | 17.6 |
| LRRK1 (leucine rich repeat kinase 1) | 2 | 1.93 | 16.5 | 11.2 |
| LRRK1 (leucine rich repeat kinase 1) | 3 | 1.58 | 14.1 | 8.19 |
| DEFB121 (defensin beta 121) | 1 | 0.384 | 5.67 | 5 |
| DEFB121 (defensin beta 121) | 2 | -0.643 | -1.56 | 3.01 |
| DEFB121 (defensin beta 121) | 3 | 0.243 | 4.68 | 4.73 |
| MROH2B (maestro heat like repeat family member 2B) | 1 | -0.193 | 1.61 | 4.78 |
| MROH2B (maestro heat like repeat family member 2B) | 2 | 0.0504 | 3.32 | 4.16 |
| MROH2B (maestro heat like repeat family member 2B) | 3 | 0.596 | 7.16 | 5.18 |
| SLC25A37 | 1 | -0.963 | -3.8 | 2.84 |
| SLC25A37 | 2 | -1.15 | -5.12 | 1.84 |
| SLC25A37 | 3 | 0.165 | 4.13 | 7.82 |
| TYROBP (transmembrane immune signaling adaptor TYROBP) | 1 | -0.356 | 0.462 | 5.79 |
| TYROBP (transmembrane immune signaling adaptor TYROBP) | 2 | -0.184 | 1.68 | 5.03 |
| TYROBP (transmembrane immune signaling adaptor TYROBP) | 3 | -0.253 | 1.18 | 4.7 |
